Here are results for one substance from article PMC4241993.

No constants are given. Whether binding was seen depends on the method and setting. In cells and extracts the contact can be indirect. Some results given as binding are weak or reduced against the parent protein; the word gives no strength. Sequences can lack the tags named with a protein.

Test [1] addresses T1, ΔC250-KIAA1199 mutant (FLAG) (human (cDNA from CaSki cells)) (UniProt Q8WUJ3).
T1 sequence: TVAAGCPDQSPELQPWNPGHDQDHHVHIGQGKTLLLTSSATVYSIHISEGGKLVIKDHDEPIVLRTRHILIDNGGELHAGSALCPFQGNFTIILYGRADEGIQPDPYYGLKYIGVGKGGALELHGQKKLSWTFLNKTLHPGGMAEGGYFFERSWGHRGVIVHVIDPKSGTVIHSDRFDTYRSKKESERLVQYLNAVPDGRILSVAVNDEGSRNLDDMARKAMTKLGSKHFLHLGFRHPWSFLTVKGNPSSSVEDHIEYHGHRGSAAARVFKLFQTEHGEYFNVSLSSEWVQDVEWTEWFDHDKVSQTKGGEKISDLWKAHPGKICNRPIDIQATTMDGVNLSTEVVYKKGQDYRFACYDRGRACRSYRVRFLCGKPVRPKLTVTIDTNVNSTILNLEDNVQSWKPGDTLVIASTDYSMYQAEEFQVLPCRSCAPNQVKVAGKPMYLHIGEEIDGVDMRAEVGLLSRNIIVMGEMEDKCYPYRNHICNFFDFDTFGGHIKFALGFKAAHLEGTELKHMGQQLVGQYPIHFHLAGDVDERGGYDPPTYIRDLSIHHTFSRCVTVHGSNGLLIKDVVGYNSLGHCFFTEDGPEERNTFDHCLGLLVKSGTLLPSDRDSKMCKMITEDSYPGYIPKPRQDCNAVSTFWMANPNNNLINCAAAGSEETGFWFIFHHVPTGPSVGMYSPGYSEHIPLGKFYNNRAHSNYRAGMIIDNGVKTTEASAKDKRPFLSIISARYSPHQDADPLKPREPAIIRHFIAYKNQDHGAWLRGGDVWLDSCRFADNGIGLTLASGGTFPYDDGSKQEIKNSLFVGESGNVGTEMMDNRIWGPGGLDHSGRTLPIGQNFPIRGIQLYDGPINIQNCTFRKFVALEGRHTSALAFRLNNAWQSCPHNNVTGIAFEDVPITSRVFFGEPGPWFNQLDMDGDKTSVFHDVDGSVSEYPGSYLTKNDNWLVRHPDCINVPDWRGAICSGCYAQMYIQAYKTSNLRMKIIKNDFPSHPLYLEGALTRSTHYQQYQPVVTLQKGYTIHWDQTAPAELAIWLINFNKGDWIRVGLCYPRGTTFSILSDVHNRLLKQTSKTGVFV
Description: co-IP; cells transfected with KIAA1199-FLAG wild type or ΔN/ΔC mutants; anti-FLAG IP (anti-HA as negative control) followed by anti-EGFR blot.

Test [2] concerns the target T2, ΔN100 KIAA1199 mutant (FLAG) (human (cDNA from CaSki cells)) (UniProt Q8WUJ3).
T2 sequence: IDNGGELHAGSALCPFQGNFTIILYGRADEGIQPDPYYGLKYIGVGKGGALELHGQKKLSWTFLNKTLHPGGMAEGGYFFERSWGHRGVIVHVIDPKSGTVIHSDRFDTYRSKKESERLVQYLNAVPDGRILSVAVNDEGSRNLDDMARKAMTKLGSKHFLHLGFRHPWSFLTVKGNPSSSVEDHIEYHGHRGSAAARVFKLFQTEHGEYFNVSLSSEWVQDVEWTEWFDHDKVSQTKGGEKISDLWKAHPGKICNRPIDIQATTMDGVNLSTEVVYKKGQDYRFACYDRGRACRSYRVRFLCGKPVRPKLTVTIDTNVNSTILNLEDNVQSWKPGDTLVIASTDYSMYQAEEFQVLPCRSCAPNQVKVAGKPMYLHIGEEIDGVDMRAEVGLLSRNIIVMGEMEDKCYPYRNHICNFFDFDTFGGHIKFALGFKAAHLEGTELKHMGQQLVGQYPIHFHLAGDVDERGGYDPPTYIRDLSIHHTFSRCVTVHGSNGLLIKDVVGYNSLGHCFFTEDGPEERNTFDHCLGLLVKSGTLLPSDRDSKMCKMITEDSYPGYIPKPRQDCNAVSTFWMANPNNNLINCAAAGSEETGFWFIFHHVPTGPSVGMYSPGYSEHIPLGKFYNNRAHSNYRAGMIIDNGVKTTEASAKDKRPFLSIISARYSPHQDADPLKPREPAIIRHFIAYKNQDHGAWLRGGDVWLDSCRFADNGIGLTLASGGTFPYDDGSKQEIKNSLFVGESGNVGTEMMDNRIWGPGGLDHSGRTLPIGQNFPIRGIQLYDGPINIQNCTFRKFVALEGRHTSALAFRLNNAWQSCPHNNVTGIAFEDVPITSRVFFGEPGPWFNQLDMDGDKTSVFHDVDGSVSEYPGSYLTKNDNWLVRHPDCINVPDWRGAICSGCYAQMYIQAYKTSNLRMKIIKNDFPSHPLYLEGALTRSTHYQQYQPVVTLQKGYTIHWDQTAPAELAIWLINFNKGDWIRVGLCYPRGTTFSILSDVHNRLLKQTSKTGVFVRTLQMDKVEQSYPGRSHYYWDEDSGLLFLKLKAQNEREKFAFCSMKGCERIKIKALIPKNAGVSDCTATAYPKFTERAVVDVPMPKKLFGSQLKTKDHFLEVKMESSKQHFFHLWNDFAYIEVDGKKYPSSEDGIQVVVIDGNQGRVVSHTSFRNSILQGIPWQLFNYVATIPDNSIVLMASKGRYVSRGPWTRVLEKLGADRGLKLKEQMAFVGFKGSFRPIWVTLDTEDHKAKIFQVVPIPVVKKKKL
The test is described as above.

For “EGFR (in extracts of transfected cells, Figure 5e) (from UniProt P00533 25-1210) (receptor)”, the binding result in test [1] is reported as “binds”; in test [2], “no binding”.
